{"sequences": {"note": "Amino acid sequences for entries named in this document (tags omitted). Residues count along the entry.", "UniProt Q99496, residues 2-336": "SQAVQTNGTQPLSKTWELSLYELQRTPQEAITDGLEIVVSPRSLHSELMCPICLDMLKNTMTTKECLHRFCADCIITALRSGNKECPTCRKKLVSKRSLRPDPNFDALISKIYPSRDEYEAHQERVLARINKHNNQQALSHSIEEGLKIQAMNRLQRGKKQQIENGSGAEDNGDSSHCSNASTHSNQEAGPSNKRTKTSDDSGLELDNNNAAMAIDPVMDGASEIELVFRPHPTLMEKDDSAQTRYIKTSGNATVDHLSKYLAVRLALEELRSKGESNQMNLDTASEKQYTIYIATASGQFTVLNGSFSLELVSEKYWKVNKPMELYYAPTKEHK", "UniProt P24385": "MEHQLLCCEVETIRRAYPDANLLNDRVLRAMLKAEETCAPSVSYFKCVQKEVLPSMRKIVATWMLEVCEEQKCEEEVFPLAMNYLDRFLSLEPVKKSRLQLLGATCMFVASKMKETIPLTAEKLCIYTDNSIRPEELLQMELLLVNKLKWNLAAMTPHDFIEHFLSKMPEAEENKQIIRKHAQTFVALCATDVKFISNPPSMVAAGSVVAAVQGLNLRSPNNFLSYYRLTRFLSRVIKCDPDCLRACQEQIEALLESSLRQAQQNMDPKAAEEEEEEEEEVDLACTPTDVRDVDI"}, "source": "patent US20210330742A1", "biological_target": "RNF2 (UniProt Q99496)", "experiment": "co-IP and immunoblot, time course after serum stimulation", "note": "Results are given in words; binding and its absence hold for the method and conditions named. Binding seen in cells or lysates may run through a third protein. Some entries that bind do so weakly or less than the wild type."}
{"substance": "Cyclin D1 (from UniProt P24385 1-295)", "values": [{"measurement": "binding", "value": "binds"}]}
